The experiment addresses T1, M1 protein (amino acids 42–484), recombinant (S. pyogenes) (UniProt Q99XV0).
T1 sequence: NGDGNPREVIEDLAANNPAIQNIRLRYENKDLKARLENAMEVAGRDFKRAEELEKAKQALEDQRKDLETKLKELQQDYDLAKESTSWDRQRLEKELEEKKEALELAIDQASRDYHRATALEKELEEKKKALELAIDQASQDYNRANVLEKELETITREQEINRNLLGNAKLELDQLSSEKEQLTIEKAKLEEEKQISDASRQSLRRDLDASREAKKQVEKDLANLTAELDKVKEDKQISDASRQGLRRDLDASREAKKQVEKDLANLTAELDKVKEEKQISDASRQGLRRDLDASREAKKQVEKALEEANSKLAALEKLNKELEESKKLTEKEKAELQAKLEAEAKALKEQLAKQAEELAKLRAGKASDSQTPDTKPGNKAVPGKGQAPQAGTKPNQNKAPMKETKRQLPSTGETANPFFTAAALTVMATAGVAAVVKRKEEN
Description: cross-linking; additional TX-MS experiment with commercial C4BP; details in Supplementary Note 8 (not shown).

Sequences of proteins named here, by UniProt entry; tags and fusion partners are left off. Residues count along the entry.
UniProt P04003, residues 49-597: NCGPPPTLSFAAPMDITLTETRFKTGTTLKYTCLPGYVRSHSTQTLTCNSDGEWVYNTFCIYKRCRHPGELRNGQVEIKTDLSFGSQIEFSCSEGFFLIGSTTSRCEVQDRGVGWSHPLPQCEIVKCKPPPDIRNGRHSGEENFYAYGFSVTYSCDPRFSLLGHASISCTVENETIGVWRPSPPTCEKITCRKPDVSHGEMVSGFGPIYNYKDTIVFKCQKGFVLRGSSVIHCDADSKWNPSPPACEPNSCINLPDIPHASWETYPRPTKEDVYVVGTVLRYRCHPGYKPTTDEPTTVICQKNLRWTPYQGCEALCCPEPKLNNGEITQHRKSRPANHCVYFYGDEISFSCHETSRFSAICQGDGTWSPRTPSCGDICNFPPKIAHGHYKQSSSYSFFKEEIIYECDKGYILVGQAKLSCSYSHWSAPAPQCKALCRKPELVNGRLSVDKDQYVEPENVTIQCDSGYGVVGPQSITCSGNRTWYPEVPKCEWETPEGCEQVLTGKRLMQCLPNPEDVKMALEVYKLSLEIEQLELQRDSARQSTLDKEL

The values that follow come from PMC6331586, “Rapid determination of quaternary protein structures in complex biological samples” (Nature Communications, 2019).

Results are given in words; binding and its absence hold for the method and conditions named. Binding seen in cells or lysates may run through a third protein. Some results given as binding are weak or reduced against the parent protein; the word gives no strength.

In the case of “C4b-binding protein (from UniProt P04003 49-597)”, the binding entry is “binds”.
